The record followed here is article PMC2824764.

Chains of the proteins cited; added tags and fusions are not shown.
UniProt Q96CV9: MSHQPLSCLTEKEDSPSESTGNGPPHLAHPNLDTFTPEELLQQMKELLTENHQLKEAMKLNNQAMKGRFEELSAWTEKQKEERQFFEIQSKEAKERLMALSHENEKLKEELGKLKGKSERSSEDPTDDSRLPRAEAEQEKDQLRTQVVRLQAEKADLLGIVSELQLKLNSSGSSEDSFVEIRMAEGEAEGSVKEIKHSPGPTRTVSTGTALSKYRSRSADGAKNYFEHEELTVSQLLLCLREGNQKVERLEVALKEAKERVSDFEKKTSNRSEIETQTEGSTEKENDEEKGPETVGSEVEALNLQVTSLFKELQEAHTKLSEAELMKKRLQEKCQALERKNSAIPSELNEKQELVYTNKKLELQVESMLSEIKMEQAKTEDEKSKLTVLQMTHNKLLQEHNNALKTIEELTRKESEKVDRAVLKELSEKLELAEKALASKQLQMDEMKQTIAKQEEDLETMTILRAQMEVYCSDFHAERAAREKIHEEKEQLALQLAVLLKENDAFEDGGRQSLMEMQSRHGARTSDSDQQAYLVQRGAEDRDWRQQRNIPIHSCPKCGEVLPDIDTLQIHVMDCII
UniProt Q8K3K8: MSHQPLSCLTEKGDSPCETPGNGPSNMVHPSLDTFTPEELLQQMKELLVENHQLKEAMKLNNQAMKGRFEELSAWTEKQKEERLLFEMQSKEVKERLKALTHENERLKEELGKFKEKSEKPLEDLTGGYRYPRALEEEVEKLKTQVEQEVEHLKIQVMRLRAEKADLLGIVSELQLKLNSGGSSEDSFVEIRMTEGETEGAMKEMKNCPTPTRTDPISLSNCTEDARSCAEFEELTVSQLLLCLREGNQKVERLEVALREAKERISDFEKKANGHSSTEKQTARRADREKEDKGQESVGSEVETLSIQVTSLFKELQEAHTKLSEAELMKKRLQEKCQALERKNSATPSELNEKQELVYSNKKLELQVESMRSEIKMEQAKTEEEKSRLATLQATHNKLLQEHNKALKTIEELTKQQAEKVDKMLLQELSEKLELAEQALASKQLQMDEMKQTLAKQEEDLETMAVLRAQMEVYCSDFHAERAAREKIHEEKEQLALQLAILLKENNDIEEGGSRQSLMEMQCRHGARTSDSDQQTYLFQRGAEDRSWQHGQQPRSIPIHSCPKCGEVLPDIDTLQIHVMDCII

Test [1] has as its target T1, GST-TBK1 (UniProt Q9UHD2).
T1 sequence: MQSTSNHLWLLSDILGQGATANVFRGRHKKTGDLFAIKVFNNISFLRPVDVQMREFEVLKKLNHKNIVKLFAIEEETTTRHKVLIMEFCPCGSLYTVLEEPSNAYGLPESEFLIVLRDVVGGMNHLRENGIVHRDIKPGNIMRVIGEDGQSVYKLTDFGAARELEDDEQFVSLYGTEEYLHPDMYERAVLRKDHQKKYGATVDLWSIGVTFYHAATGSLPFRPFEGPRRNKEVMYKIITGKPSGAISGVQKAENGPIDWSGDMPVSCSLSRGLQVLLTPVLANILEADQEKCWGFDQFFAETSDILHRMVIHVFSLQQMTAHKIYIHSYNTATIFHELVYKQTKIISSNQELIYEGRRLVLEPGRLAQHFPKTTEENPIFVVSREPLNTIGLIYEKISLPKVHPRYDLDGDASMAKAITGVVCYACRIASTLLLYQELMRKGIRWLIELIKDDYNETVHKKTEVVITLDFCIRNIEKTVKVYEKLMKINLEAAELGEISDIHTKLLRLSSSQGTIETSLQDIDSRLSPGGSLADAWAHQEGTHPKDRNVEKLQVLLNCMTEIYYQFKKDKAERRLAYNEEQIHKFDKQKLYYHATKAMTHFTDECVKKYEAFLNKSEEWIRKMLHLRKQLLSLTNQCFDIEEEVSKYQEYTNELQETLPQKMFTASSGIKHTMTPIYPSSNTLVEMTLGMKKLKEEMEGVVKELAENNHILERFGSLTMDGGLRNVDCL
The test can be described thus: pull-down; GST fusion (or GST) and HA- or FLAG-tagged partner co-expressed in HEK293T cells; 1 mg of total cell lysate with glutathione-agarose beads for 4 hours at 4°C, washed in lysis buffer; immunoblot for the tag; with or without SeV infection (100 HA units/ml, 8 hours) in Figure 4A. A general note: In western blotting, separated proteins are transferred to a membrane and probed.

For test [2], the target named is T2, endogenous TBK1 (RAW264.7) (mouse (endogenous in RAW264.7)) (UniProt Q9WUN2).
T2 sequence: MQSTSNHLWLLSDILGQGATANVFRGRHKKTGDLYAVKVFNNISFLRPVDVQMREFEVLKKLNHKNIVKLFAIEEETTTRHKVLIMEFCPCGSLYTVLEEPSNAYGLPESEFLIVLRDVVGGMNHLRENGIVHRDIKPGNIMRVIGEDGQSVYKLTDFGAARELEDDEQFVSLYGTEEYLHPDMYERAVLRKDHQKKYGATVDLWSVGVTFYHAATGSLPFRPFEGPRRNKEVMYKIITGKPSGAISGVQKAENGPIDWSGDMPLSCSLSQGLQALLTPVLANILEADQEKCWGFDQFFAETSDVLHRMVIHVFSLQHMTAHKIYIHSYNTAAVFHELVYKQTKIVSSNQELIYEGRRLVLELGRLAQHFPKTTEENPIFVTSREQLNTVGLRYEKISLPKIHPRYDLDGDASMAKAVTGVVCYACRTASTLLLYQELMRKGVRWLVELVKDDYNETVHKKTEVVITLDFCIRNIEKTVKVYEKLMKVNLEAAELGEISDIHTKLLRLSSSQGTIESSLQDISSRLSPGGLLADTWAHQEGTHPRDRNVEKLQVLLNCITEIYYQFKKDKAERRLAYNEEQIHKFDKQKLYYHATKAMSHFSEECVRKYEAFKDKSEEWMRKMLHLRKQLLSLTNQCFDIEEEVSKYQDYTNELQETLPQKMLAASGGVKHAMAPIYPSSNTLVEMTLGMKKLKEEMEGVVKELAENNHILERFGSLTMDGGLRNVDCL
The test can be described thus: co-IP; endogenous proteins from RAW264.7 cells treated with poly-I:C (100 µg/ml) for the times indicated; 1 mg of lysate with anti-optineurin or anti-TBK1 antibody, protein G agarose; pre-immune IgG as control.

The target of test [3] is T1, GST-TBK1. As to the kind of experiment: pull-down; GST pull-down repeated in HEK293-TLR3 cells treated with dsRNA to activate TLR3 signalling; data not shown.
Test [4] concerns the target GST-optineurin (UniProt Q96CV9). As to the kind of experiment: pull-down; GST fusion (or GST) and HA- or FLAG-tagged partner co-expressed in HEK293T cells; 1 mg of total cell lysate with glutathione-agarose beads for 4 hours at 4°C, washed in lysis buffer; immunoblot for the tag; with or without SeV infection (100 HA units/ml, 8 hours) in Figure 4A.
The target of test [5] is FLAG-tagged wild type optineurin (UniProt Q96CV9). The test can be described thus: co-IP; sequential: HEK293T cells with FLAG-optineurin with or without HA-TBK1; anti-FLAG agarose, elution with FLAG peptide, then immunoprecipitation with anti-TRAF3 antibody, anti-HA immunoblot.

These are yes or no findings as the source states them, for the method shown. In cells and extracts the contact can be indirect. Some results given as binding are weak or reduced against the parent protein; the word gives no strength. For part of these data: Where a sequence is shown, tags or fusion partners need not be part of it.

Consider “FLAG-tagged wild type optineurin (from UniProt Q96CV9 1-577)”, for which the binding result in test [1] is listed as “binds”.

Regarding “endogenous optineurin (RAW264.7) (from UniProt Q8K3K8 1-584)”, the binding result in test [2] is “binds”.

In the case of “HA-tagged optineurin (from UniProt Q96CV9 1-577)”, the binding result in test [1] and in test [3] was “binds” in each case.

B1: HA-TBK1 (enzyme, UniProt Q9UHD2 1-729)
chain: T1 sequence
Regarding B1, the binding result in test [4] and in test [5] was “binds” in each case.
